Test results from PubChem BioAssay AID2685 (National Center for Advancing Translational Sciences (NCATS), 2010).
The list shows a part of the results. The main result of the screen is listed elsewhere. These columns were measured beside it and carry no call. Most of these compounds were active or inconclusive in the main read-out, so they are no random draw. The note in brackets gives the kind of curve behind each potency; many fits are weak.

Assay: qHTS Assay for Lipid Storage Modulators in Drosophila S3 Cells;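 as to cell number change: cells counted by Cell Tracker Red CMTPX staining in the red channel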
Settings: BODIPY lipid droplet fluorescence, 18-24 h; for cell number change: measured here: cell count max response, cells fed with added oleic acid
Outline: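 Laser-scanning cytometry quantifies lipid droplet accumulation (500–530 nm total intensity; droplet/cell object ratio) in oleic acid-fed (400 uM added) Drosophila S3 cells treated with a concentration series. 20 uM Triacsin C defined 100% inhibition.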

[1] = measured here: cell number channel AC50, cells fed with added oleic acid
[2] = measured here: lipid fluorescence (Fed channel) AC50, cells fed with added oleic acid

| SMILES | AC50 [1] | cell number change [%] | AC50 [2] |
| --- | --- | --- | --- |
| Cc1cc(Br)c(NC(=O)COC(=O)CSc2nnc(-c3ccc(Cl)cc3)o2)c(Br)c1 | 0.58 µM [rising, single point] | – | – |
| CCc1c(C)nc(SCC(N)=O)c(C#N)c1C | 3.66 µM [rising, single point] | 20.9 | – |
| Cc1cccn2c(=O)c3cc(S(=O)(=O)c4ccc(Br)cc4)c(=N)n(C4CCCCC4)c3nc12 | – | 13.4 | – |
| CN1/C(=C\C(=O)c2cccc(S(=O)(=O)N3CCCCC3)c2)C(C)(C)c2ccccc21 | – | 8.7 | 1.84 µM [rising, partial curve] |
| N=c1oc2cc(O)ccc2cc1C(=O)Nc1ccc(Cl)cc1 | 32.6 µM [rising, partial curve] | 73.9 | – |
| Cc1ccccc1S(=O)(=O)N(CC(O)CN1C(=O)NC(C)(C)C1=O)c1ccccc1 (stereo not drawn) | – | 3.86 | 0.082 µM [falling, full curve, poor fit] |
| Cc1cccc(/C(N)=N/OC(=O)c2ccccc2Cl)c1 | 0.82 µM [rising, partial curve] | – | 2.91 µM [rising, partial curve] |
| NC(=O)CC(NC(=O)c1cccc(Br)c1)c1ccc(N2CCN(c3ccccn3)CC2)c([N+](=O)[O-])c1 (stereo not drawn) | – | -1.2 | – |
| Cc1ccc(S(=O)(=O)N2[C@@H](c3ccc(Cl)cc3)C(C(=O)O)=CC[C@H]2c2ccc(C(C)C)cc2)cc1 | 32.6 µM [falling, single point] | -38 | 29.1 µM [falling, single point] |
| COc1ccc(-n2nc3c(N4CCC(C(=O)NCc5ccco5)CC4)nnc(C)c3c2C)cc1 | – | 6.49 | 23.1 µM [rising, single point] |
| COc1ccc(CNC(=O)Cn2c(=O)n(CC(=O)N3CCCCC3)c(=O)c3sccc32)cc1 | – | -13 | – |
| COCc1cc(C)nc(N)c1C#N | – | 4.78 | – |
| Cc1ccccc1OCCn1cc(C(=O)O)c2ccccc21 | – | -18.8 | – |
| CC1=C(C(=O)OCc2ccc3c(c2)OCO3)C(c2ccc(Cl)cc2)NC(=O)N1 (stereo not drawn) | 16.4 µM [rising, single point] | 33.8 | 4.61 µM [rising, single point] |
| Cc1ccc(C)c(NC(=O)CSc2nnc(-c3n[nH]c4ccccc34)o2)c1 | – | -2.82 | – |
| CC(C(=O)c1ccccc1)n1c(N2CCOCC2)nc2c1c(=O)n(C)c(=O)n2C (stereo not drawn) | – | 17.6 | 6.51 µM [rising, single point] |
| Cc1cc(Nc2cccc(C(F)(F)F)c2)n2nc(C)nc2n1 | – | 2.7 | 2.91 µM [rising, single point] |
| CCCN1/C(=C2/SC(=S)N(CC)C2=O)C=Cc2ccccc21 | 25.9 µM [falling, single point] | -88.4 | 7.31 µM [falling, partial curve] |
| O=C(CSc1nnc(NC(=O)C2CC2)s1)NCc1ccco1 | 0.651 µM [falling, single point] | – | 0.13 µM [falling, full curve, poor fit] |
| COc1cccc(C(=O)Nc2nnc(S(=O)(=O)N(C)Cc3ccc(F)cc3)s2)c1 | – | – | 18.4 µM [falling, single point] |
| COC(=O)c1ccc(COC(=O)c2ccc(S(=O)(=O)N3CCC(C)CC3)cc2)o1 | 0.00651 µM [falling, full curve, poor fit] | -24.2 | – |

| SMILES | AC50 [1] | cell number change [%] | AC50 [2] |
| --- | --- | --- | --- |
| O=C(NCCc1ccccc1)C1(S(=O)(=O)c2ccc(Cl)cc2)CC1 | – | 20.7 | 25.9 µM [rising, single point] |
| COc1ccc(C)cc1Nc1n[n+](-c2ccccc2)c(-c2c(OC)ccc3ccccc23)s1 | 20.6 µM [falling, single point] | -69 | 29.1 µM [falling, single point] |
| COc1ccc(C(=O)N2CC3(CC(c4ccc(Cl)cc4)=NO3)C[C@H]2C(=O)NCC(N)=O)cc1 (stereo partly drawn) | – | 69.4 | – |
| CCOc1cccc(CNCCCSc2ncccn2)c1 | – | -13.3 | 2.59 µM [rising, single point] |
| O=C(/C=C/c1ccc([N+](=O)[O-])cc1)NCCSCc1ccco1 | 0.731 µM [rising, single point] | -16.7 | – |
| COc1ccc(CCN(C)CCN2C(=O)c3ccccc3C2=O)cc1OC | – | 2.8 | 0.291 µM [falling, partial curve, poor fit] |
| O=C(COC(=O)c1n[nH]c(=O)c2ccccc12)c1ccccc1 | 3.66 µM [falling, full curve, poor fit] | -43.1 | 3.66 µM [falling, full curve] |
| CCc1cc(C(=O)NC2CCCc3c2cnn3-c2cccc(C)c2C)n(C)n1 (stereo not drawn) | 0.0259 µM [falling, full curve] | -34.2 | 0.0731 µM [falling, full curve, poor fit] |
| O=C(N/N=C/c1c[nH]c2ccccc12)c1ccc(Cl)cc1 | – | 0.354 | 13 µM [falling, partial curve, poor fit] |
| O=C(CN1C(=O)C2C3C=CC(C3)C2C1=O)Nc1ccc2c(c1)OCCO2 (stereo not drawn) | – | -3.75 | – |
| COc1cccc(-c2ncc3ccccc3c2COC(=O)c2ccccc2C(=O)O)c1 | – | -3.84 | – |
| CC1CCN(C(=O)COC(=O)c2ccc(F)c(S(=O)(=O)N3CCOCC3)c2)CC1 | – | 18.9 | – |
| COCCN(C(=O)c1ccc(NC2CC2)c([N+](=O)[O-])c1)c1c(N)n(CC(C)C)c(=O)[nH]c1=O | – | 12.1 | – |
| COc1ccccc1NC(=S)N1CCC(NC(=O)c2ccco2)CC1 | – | -8.03 | 3.66 µM [falling, single point] |
| Cc1[nH]c2ccccc2c1CCNS(=O)(=O)c1ccc(S(N)(=O)=O)cc1 | – | 16.7 | – |
| CCN1C(=O)c2cccc3c(S(=O)(=O)NC(Cc4ccccc4)C(=O)O)ccc1c23 (stereo not drawn) | – | 2.52 | – |
| O=C(Cc1ccccc1F)Nc1ccccc1-c1ccccc1 | 0.13 µM [falling, full curve, poor fit] | -13.8 | – |
| CCCC(=O)Nc1nc(-c2ccc(OC)cc2)cs1 | 0.0731 µM [rising, full curve] | 48.1 | 2.31 µM [rising, partial curve] |
| O=C1/C(=C\c2ccco2)SC(=S)N1c1ccc(O)cc1 | 29.1 µM [falling, single point] | -43.3 | 20.6 µM [falling, single point] |
| COC(=O)c1ccc(C)c(NS(=O)(=O)c2ccc(OC)cc2)c1 | 16.4 µM [rising, partial curve] | 46.6 | – |
| CCOC(=O)CCc1n[nH]c(=O)[nH]c1=O | – | 5 | 0.58 µM [falling, single point] |

| SMILES | AC50 [1] | cell number change [%] | AC50 [2] |
| --- | --- | --- | --- |
| O=C(NCc1ccccc1F)C(=O)NCC1CCCN1S(=O)(=O)c1cccs1 (stereo not drawn) | 29.1 µM [rising, single point] | 47.8 | – |
| NS(=O)(=O)c1ccc(CNC(=O)c2ccc(NS(=O)(=O)c3ccc4[nH]c(=O)[nH]c4c3)cc2)cc1 | – | -0.468 | 29.1 µM [falling, single point] |
| Cc1ccc(S(=O)(=O)C(C#N)c2nc3ccccc3nc2N2CCCCC2)cc1 (stereo not drawn) | – | 11.3 | 0.00651 µM [falling, full curve, poor fit] |
| O=C1C=C(c2ccc3ccccc3c2)C[C@@H](c2ccc(F)cc2)C1 | – | 3.82 | 0.058 µM [falling, full curve] |
| CN(C)c1ccc(Nc2cc(Cl)ncn2)cc1 | – | -24.8 | 20.6 µM [falling, single point] |
| Oc1cc(O)c2c(c1)O[C@H](c1ccc(O)c(O)c1)[C@@H](O)C2 | – | -16.7 | 6.51 µM [falling, single point] |
| N#Cc1ccccc1NC(=O)COC(=O)CCc1ccccc1 | – | 3.85 | – |
| O=C(CN1CCC(C(=O)c2ccc3c(c2)OCCO3)CC1)NCc1ccccc1 | – | 16.7 | 0.00517 µM [rising, full curve, poor fit] |
| CCCOc1ccc(NC(=O)CCC(=O)NC(C)c2ccccc2)cc1 (stereo not drawn) | – | -11 | – |
| Cc1ccccc1OCC(O)Cn1c(SC(C)C)nc2c1c(=O)[nH]c(=O)n2C (stereo not drawn) | 2.59 µM [rising, partial curve] | 3.99 | – |
| c1ccc(-c2nc3ccccn3c2NCc2ccc3c(c2)OCO3)cc1 | – | 9.67 | 0.13 µM [rising, full curve, poor fit] |
| CCOc1ccccc1C1NC(=O)CCC1[N+](=O)[O-] (stereo not drawn) | – | -0.265 | – |
| CCCNC(=O)c1cccc(Cn2cc(Br)c([N+](=O)[O-])n2)c1 | 5.17 µM [falling, single point] | 10.1 | 10.3 µM [rising, partial curve] |
| Cc1c(C(=O)NCCc2ccc(S(N)(=O)=O)cc2)cccc1[N+](=O)[O-] | – | 0.637 | – |
| C/C(N)=C(/C#N)C(=O)COC(=O)C(c1ccccc1)c1ccccc1 | – | -21.1 | 32.6 µM [falling, single point] |
| COc1ccccc1C(=O)Nc1cccc(SC)c1 | 2.06 µM [rising, partial curve] | 11.9 | 3.26 µM [rising, partial curve] |
| OCCC1CN(Cc2cc3c(cc2Cl)OCO3)CCN1C1CCCC1 (stereo not drawn) | – | -6.21 | 0.164 µM [falling, full curve, poor fit] |
| CC(=O)Nc1sc(C)c(C)c1C(=O)OCC(=O)N(C)c1c(N)n(Cc2ccccc2)c(=O)[nH]c1=O | – | 14.2 | 18.4 µM [rising, single point] |
| O=C(N1CCOCC1)N1CCC(c2nc(-c3ccc(S(=O)(=O)N4CCOCC4)cc3)no2)CC1 | – | -21.6 | 3.26 µM [falling, full curve] |

In the list so far, these have a thiophene ring, fused or not.

| SMILES | AC50 [1] | cell number change [%] | AC50 [2] |
| --- | --- | --- | --- |
| COc1ccc(CNC(=O)Cn2c(=O)n(CC(=O)N3CCCCC3)c(=O)c3sccc32)cc1 | – | -13 | – |
| O=C(NCc1ccccc1F)C(=O)NCC1CCCN1S(=O)(=O)c1cccs1 (stereo not drawn) | 29.1 µM [rising, single point] | 47.8 | – |
| CC(=O)Nc1sc(C)c(C)c1C(=O)OCC(=O)N(C)c1c(N)n(Cc2ccccc2)c(=O)[nH]c1=O | – | 14.2 | 18.4 µM [rising, single point] |
